According to US20050112564A1 (published 2005):
No constants are given. Whether binding was seen depends on the method and setting. Some results given as binding are weak or reduced against the parent protein; the word gives no strength.

Sequences of proteins named here, by UniProt entry; tags and fusion partners are left off. Residues count along the entry.
UniProt P02701, residues 25-152: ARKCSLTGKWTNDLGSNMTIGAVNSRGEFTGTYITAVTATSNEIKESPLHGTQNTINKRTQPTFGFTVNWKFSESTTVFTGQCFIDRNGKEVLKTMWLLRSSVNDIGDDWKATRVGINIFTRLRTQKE

Target: T1, avidin (UniProt P02701 25-152)
T1 construct: also called avidin of a bar code 01
Assay: FITC-peptide on avidin-coated bar-coded carriers; fluorescence read in flow tube

- binding: binds
B1: FITC-labeled polypeptide of SEQ ID NO: 6 (15 amino acids containing avidin-binding peptide sequence) (peptide)
peptide: ISFENTWLWHPQFSS
modifications: FITC at the amino-terminus
